Measured values reported in paper PMC11926652.

Tests used:
[1] = target: T1, mature BCCP1 (BCCP1_(81–280)), biotin carboxyl carrier protein 1 of the Arabidopsis heteromeric acetyl-CoA carboxylase (Arabidopsis) (UniProt Q42533); assay: co-purification + NMR titration; 15N-labelled mature BCCP1 (130 μM) copurified with unlabelled BADC3 (134 μM), no BC; chemical shift perturbation in 1H-15N HSQC against BCCP1 alone; 303 K, 20 mM phosphate pH 7.2, 150 mM NaCl, 10% glycerol, 2 mM DTT
T1 sequence (chain, uniformly 15N-labelled): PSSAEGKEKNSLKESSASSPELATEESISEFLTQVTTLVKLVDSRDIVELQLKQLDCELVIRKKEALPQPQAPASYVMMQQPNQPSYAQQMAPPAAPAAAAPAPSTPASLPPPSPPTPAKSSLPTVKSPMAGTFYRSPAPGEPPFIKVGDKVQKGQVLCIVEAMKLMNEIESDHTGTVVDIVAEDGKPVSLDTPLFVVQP

[2] = target: T1, mature BCCP1 (BCCP1_(81–280)), biotin carboxyl carrier protein 1 of the Arabidopsis heteromeric acetyl-CoA carboxylase (Arabidopsis); assay: co-purification + NMR titration; 15N-labelled mature BCCP1 (114 μM) copurified with unlabelled BADC3 (132 μM) and BC (27 μM); chemical shift perturbation in 1H-15N HSQC against BCCP1 alone; 303 K, 20 mM phosphate pH 7.2, 150 mM NaCl, 10% glycerol, 2 mM DTT

binding [1]: binds
binding [2]: binds
Substance: biotin attachment domain-containing protein 3, BADC3_(A55-Q263) (from UniProt F4J016) (domain or fragment)

Results are given in words; binding and its absence hold for the method and conditions named. Binding seen in cells or lysates may run through a third protein. Binding can be weak; no strength is given.
